# Reference: the supplement of paper PMC10735217
# Counter-ions that a name gives are not always drawn. The list shows a part of the results. Single values are uncertain here, since repeats match poorly.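 Human kidney-derived cells stably carry a construct in which eight TEAD-binding elements drive luciferase, measured by luminescence in a drug-repurposing library screen. A hit is any compound whose signal exceeds the plate mean by more than five robust Z scores.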
# System: HEK293A TEAD-LUC reporter
# Assay: TEAD-luciferase reporter activity (YAP activation), robust Z score vs plate; higher = stronger YAP/TEAD activation
# Conditions: 24 h
SMILES,TEAD-luciferase reporter activity (compound concentration: 200 nM),TEAD-luciferase reporter activity (compound concentration: 2 uM),TEAD-luciferase reporter activity (compound concentration: 10 uM)
Cc1[nH]c2ccccc2c1C[C@@H](NC(=O)[C@@H](N)Cc1cnc[nH]1)C(=O)N[C@@H](C)C(=O)N[C@@H](Cc1c[nH]c2ccccc12)C(=O)N[C@H](Cc1ccccc1)C(=O)N[C@@H](CCCCN)C(N)=O [Examorelin],inactive: -1.24,inactive: -1.46,inactive: -1.63
CCOc1ccc(S(=O)(=O)NC(=O)c2ccccc2)cc1,inactive: -0.673,inactive: -0.886,inactive: -0.95
Cc1cn([C@H]2C[C@H](N=[N+]=[N-])[C@@H](CO[PH](=O)O)O2)c(=O)[nH]c1=O,inactive: 1.32,,inactive: -0.863
Cc1cn([C@H]2C[C@H](N=[N+]=[N-])[C@@H](CO[PH](=O)O)O2)c(=O)[nH]c1=O [Phosphazid],,inactive: 1.39,
"O=P(O)(O)C(O)(Cc1cccnc1)P(=O)(O)O [risedronic acid sodium, delayed-release]",,inactive: -1.82,
O=P(O)(O)C(O)(Cc1cccnc1)P(=O)(O)O [Risedronate],inactive: 0.61,,inactive: 0.746
CCOC(=O)C(C)(C)Oc1ccc(Cl)cc1 [Clofibrate],inactive: -1.08,inactive: -0.47,inactive: 0.00829
COCc1c(C(C)C)nc(C(C)C)c(/C=C/[C@@H](O)C[C@@H](O)CC(=O)O)c1-c1ccc(F)cc1 [cerivastatin sodium],inactive: -1.49,inactive: -1.81,inactive: -2.54
CCCCN(CCC1CCCCC1)Cc1ccc(C(=O)N[C@H](CCSC)C(=O)O)c(-c2ccccc2C)c1,inactive: 4.11,inactive: -0.372,inactive: 1.61
CCCCCCCCC[C@H](O)CC(=O)CCc1ccc(O)c(OC)c1 [10-Gingerol],inactive: 0.612,inactive: -0.4,inactive: 1.32
CC(C)c1cc(Nc2cccc(C(=O)O)c2)cc(C(C)C)c1O,inactive: -2.74,inactive: -0.655,inactive: 1.71
O=C1NC(=O)C(C(=O)Nc2ccc(Cl)cc2)c2ccccc21 (stereo not given),inactive: -0.408,inactive: -0.217,inactive: 0.541
CNC(=S)NS(=O)(=O)c1cc(CCNC(=O)c2cc(Cl)ccc2OC)ccc1OC [Clamikalant sodium],inactive: -0.712,inactive: -1.92,inactive: 2.57
CCN1CCC(N(C(=O)c2ccc(-n3ccnc3)cc2)C2CC2)CC1,inactive: -0.907,inactive: 0.281,inactive: 0.766
CCOC(=O)c1cc(C(=O)NC)nc(C(=O)NC)c1,inactive: -1.05,inactive: -1.44,inactive: -0.98
N[C@@H]1CCCCN(c2c(F)cc3c(=O)c(C(=O)O)cn(C4CC4)c3c2Cl)C1 [besifloxacin hydrochloride],inactive: 1.09,inactive: -0.833,inactive: -1.47
Nc1nc(/C(=N/O)C(=O)N[C@@H]2C(=O)N3C(C(=O)O)=C(/C=C4\CCN([C@@H]5CCNC5)C4=O)CS[C@H]23)ns1 [Ceftobiprole],inactive: -0.376,,inactive: 0.959
NC(=O)C12NC(Cc3ccccc31)c1ccccc12 (stereo not given),inactive: -1.29,inactive: -0.376,inactive: -0.117
CN=C(N)NCCC[C@H](NC(=O)[C@H](CC(C)C)NC(=O)NNC(=O)[C@H](Cc1ccccc1)NC(=O)[C@@H](NC(=O)[C@H](CC(N)=O)NC(=O)[C@@H](Cc1c[nH]c2ccccc12)NC(=O)[C@@H](Cc1ccc(O)cc1)NC(C)=O)[C@@H](C)O)C(=O)N[C@@H](Cc1c[nH]c2ccccc12)C(N)=O,inactive: -1.82,inactive: 0.867,inactive: 3.13
O=[N+]([O-])c1c(Cl)c(Cl)cc2nc(O)c(O)nc12 [Licostinel],inactive: -2.45,inactive: -1.57,inactive: -0.914
Cn1cc(-c2nc(N[C@@H]3CCCC[C@@H]3N)c(F)c3c2C(=O)NC3)cn1,inactive: 0.961,inactive: 0.589,inactive: 3.54
CCOC(=O)c1cccc(COc2ccc(N3C(N)=NC(N)=NC3(C)C)cc2Cl)c1,inactive: -1.86,inactive: -0.286,inactive: -0.203
FC(F)c1nc2ccccc2n1-c1nc(N2CCOCC2)nc(N2CCOCC2)n1,inactive: -1.81,inactive: -2.16,inactive: -0.686
CCc1nc(CC)nc(NS(=O)(=O)c2ccc(N)cc2)n1,inactive: -0.271,inactive: -1.58,inactive: -1.06
OC[C@H]1O[C@@H](Oc2cc(O)cc(/C=C/c3ccc(O)cc3)c2)[C@H](O)[C@@H](O)[C@@H]1O,inactive: -0.771,,inactive: -1.57
OC[C@H]1O[C@@H](Oc2cc(O)cc(/C=C/c3ccc(O)cc3)c2)[C@H](O)[C@@H](O)[C@@H]1O [Polydatin],,inactive: 2.02,

SMILES,TEAD-luciferase reporter activity (compound concentration: 200 nM),TEAD-luciferase reporter activity (compound concentration: 2 uM),TEAD-luciferase reporter activity (compound concentration: 10 uM)
CCOCCn1nc(C(=O)OC)c2nc(N(C)CC)nc(Nc3cc(C)ccn3)c21,inactive: -0.736,inactive: -1.01,inactive: -0.985
COc1cccc2c1ccc1nc3cccc(C(=O)N[C@H](C)CN(C)C)c3nc12,inactive: 0.419,active: 6.84,inactive: 1.42
Cc1nn(-c2cnc(OCC(C)C)c(Cl)c2)c2ccc(C(=O)NS(C)(=O)=O)cc12,inactive: -1.37,,inactive: 0.23
CC(C1C(=O)Oc2ccccc2C1=O)C1C(=O)Oc2ccccc2C1=O (stereo not given),inactive: -1.71,inactive: 4.55,inactive: 0.418
CC(=O)[C@H]1CC[C@H]2[C@@H]3CCC4=CC(=O)CC[C@]4(C)[C@H]3[C@H](O)C[C@]12C [stetaderm],active: 6.52,,inactive: 0.342
CC(=O)[C@H]1CC[C@H]2[C@@H]3CCC4=CC(=O)CC[C@]4(C)[C@H]3[C@H](O)C[C@]12C [Stetaderm],,inactive: -1.28,
"Nc1nc(N)c2nc(CNc3ccc(C(=O)NC(CCC(=O)O)C(=O)O)cc3)cnc2n1 (stereo not given) [aminopterin, Syntrix]",inactive: -0.202,,inactive: -0.429
Nc1nc(N)c2nc(CNc3ccc(C(=O)NC(CCC(=O)O)C(=O)O)cc3)cnc2n1 (stereo not given) [aminopterin],,inactive: -0.775,
O=C1NC(=O)C(Cc2ccc3oc(Cc4ccc5ccccc5c4)nc3c2)S1 (stereo not given),inactive: -1.88,inactive: -0.0223,inactive: -1.37
O=C1NCc2ccccc2CC12CCCN2CC1CCCCC1 (stereo not given),inactive: 2.27,,inactive: 1.41
COc1cc(Nc2nc3ccccc3nc2NS(=O)(=O)c2cccc(NC(=O)c3ccc(C)c(OC)c3)c2)cc(OC)c1 [analog of pilaralisib],inactive: -1.14,inactive: 1.01,inactive: 0.395
O=c1cc(OCc2ccccc2)ccn1-c1ccc2c(cnn2CCN2CCCC2)c1,inactive: 0.122,inactive: 0.685,inactive: -0.139
CC/C=C\C/C=C\C/C=C\C/C=C\C/C=C\CCCC(=O)O [DHA-metformin],inactive: 3.84,inactive: -1.84,inactive: -1.38
CC(C(=O)O)N(C)CCCC1(c2ccc(Cl)cc2)CCc2cc(Cl)ccc21 (stereo not given),inactive: -1.4,inactive: -0.545,inactive: 0.0704
CC(C(=O)O)c1ccc(CC2CCCCC2=O)c(Cl)c1 (stereo not given),inactive: -1.04,inactive: -0.837,inactive: -0.467
CCCCCNC(=N)N/N=C/c1c[nH]c2ccc(OC)cc12 [Tegaserod maleate],,inactive: -1.43,
CCCCCNC(=N)N/N=C/c1c[nH]c2ccc(OC)cc12,active: 6.72,,inactive: 1.55
Nc1nc(Cl)nc2c1ncn2C1OC(CO)C(O)C1F (stereo not given) [clofarabine],inactive: -1.62,inactive: -3,inactive: 1.47
CN1CCN(C(=O)/C=C2/c3ccccc3NC(=O)c3ccccc32)CC1 [Darenzepine],inactive: -1.13,inactive: 4.9,inactive: 4.35
Cn1c(=O)c(Oc2ccc(F)cc2F)cc2cnc(NC3CCOCC3)nc21 [R1487 (Hydrochloride)],inactive: -1.46,inactive: -2.09,inactive: -2.07
CC(=O)N[C@@H]1[C@@H](OC(C)C(=O)N[C@@H](C)C(=O)N[C@@H](CCC(=O)O)C(N)=O)[C@H](O)[C@@H](CO)O[C@@H]1O (stereo partly drawn) [N-Acetylmuramyl-L-alanyl-L-isoglutamine],inactive: -0.209,inactive: -0.781,inactive: -0.44
NC(=O)C1=CN([C@@H]2O[C@H](COP(=O)([O-])OP(=O)([O-])OC[C@H]3O[C@@H](n4cnc5c(N)ncnc54)[C@H](O)[C@@H]3O)[C@@H](O)[C@H]2O)C=CC1 [Coenzyme I],inactive: -0.108,inactive: -0.000413,inactive: -0.0921
Cc1cc(CN2CCC(N3C(=O)CC[C@@H]3C(=O)Nc3cccc(-c4nnnn4C)c3)CC2)ccc1Cl,inactive: 0.95,inactive: -1.21,inactive: -0.924
CN(C)CCCN1c2ccccc2Sc2ccc(C(F)(F)F)cc21 [Triflupromazine hydrochloride],active: 7.44,inactive: -0.661,inactive: 0.088
OC(CCCN1CCN(c2ncc(F)cn2)CC1)c1ccc(F)cc1 (stereo not given),inactive: -1.54,inactive: 0.394,inactive: 0.693
CC1=Nc2ccccc2CC(c2ccccc2)N1C (stereo not given) [dazepinil],inactive: -0.747,inactive: -1.37,inactive: -1.22

# At a glance, part of the list above.
SMILES,TEAD-luciferase reporter activity (compound concentration: 200 nM),TEAD-luciferase reporter activity (compound concentration: 2 uM),TEAD-luciferase reporter activity (compound concentration: 10 uM)
CC(C1C(=O)Oc2ccccc2C1=O)C1C(=O)Oc2ccccc2C1=O (stereo not given),inactive: -1.71,inactive: 4.55,inactive: 0.418
CC(=O)[C@H]1CC[C@H]2[C@@H]3CCC4=CC(=O)CC[C@]4(C)[C@H]3[C@H](O)C[C@]12C [stetaderm],active: 6.52,,inactive: 0.342
CC(=O)[C@H]1CC[C@H]2[C@@H]3CCC4=CC(=O)CC[C@]4(C)[C@H]3[C@H](O)C[C@]12C [Stetaderm],,inactive: -1.28,
"Nc1nc(N)c2nc(CNc3ccc(C(=O)NC(CCC(=O)O)C(=O)O)cc3)cnc2n1 (stereo not given) [aminopterin, Syntrix]",inactive: -0.202,,inactive: -0.429
Nc1nc(N)c2nc(CNc3ccc(C(=O)NC(CCC(=O)O)C(=O)O)cc3)cnc2n1 (stereo not given) [aminopterin],,inactive: -0.775,
